Assay results taken from PubChem BioAssay AID1259415 (National Center for Advancing Translational Sciences (NCATS), 2018).
Out of some 410,000 compounds screened, about 18,000 (4.4%) were called active. The inconclusive results got no clear call from the source; some entries with a clear call stand among them for comparison. Rule as the data show it: active = activity change below about -60%; inconclusive = no clear call, values can overlap the other calls; inactive = above about -39%.

assay: qHTS Assay for inhibitors of the human cytomegalovirus (HCMV); conditions: HFF cells, HCMV-luciferase reporter, 72 h; at 57.5 µM; active compounds read low
Method in brief: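 HFF cells seeded 16 h at 37C, treated with compounds, infected with luciferase-reporter HCMV at MOI 1 PFU/cell; luciferase read at 72 h post infection, normalized to buffer-only and Salinomycin controls.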
% is scaled to controls: 0 for no effect and ±100 for the full control effect.

Compound | activity change, negative = inhibition
COc1ccc(C2=Nc3ccccc3NC(=O)C2N(C(=O)c2ccnc3ccccc23)c2ccccc2)cc1 (centres undefined) | active: -81.6%
COc1cc(C#Cc2c(-c3cncn3C)n(C)c3ccc(-c4ccc(OC)c(OC)c4)cc23)cc(OC)c1 | inactive: 58.2%
Cc1ccc(C2(c3noc(CN(C)CCCN4CCOCC4)n3)CCCC2)cc1 | inconclusive: -47.8%
CCc1ccc(CNc2ncc(-c3cccc(OC)c3)n2C)cc1 | inactive: -35.8%
Cc1cc(=O)oc2c3c(cc(OCC(=O)NC4CC4)c12)OC(C)(C)CC3 | inactive: -2.77%
CCOC(=O)c1ccc(NC(=O)Nc2ccc(S(N)(=O)=O)cc2)cc1 | inconclusive: -49.7%
O=C(O)C1CC=CCC1C(=O)Nc1ccc2c(c1)OCCO2 (centres undefined) | inconclusive: -41.1%
CCCc1cc(=O)oc2c3c(c4c(c12)OC(C)(C)C=C4)OC(C)C(C)C3O (centres undefined) | active: -76.9%
NC(=NCCc1ccc(Cl)cc1)NS(=O)(=O)c1ccc(F)cc1 | inconclusive: -55.6%
COc1ccc(CNC(=O)C2CCCN(S(=O)(=O)N(C)c3ccc(F)cc3)C2)cc1OC (centres undefined) | inconclusive: -47.7%
CC1(C)N=C(N)N=C(N)N1c1cccc(C(=O)O)c1 | inconclusive: -41.6%
Cc1ccc(-c2cn3cc([N+](=O)[O-])ccc3n2)cc1 | active: -89.1%
CCCn1c(C)cc(/C=C(\C#N)C(=O)O)c1C | inactive: 89.6%
Cc1c(C(=O)NCc2ccc3c(c2)OCO3)cccc1[N+](=O)[O-] | inactive: -38%
Cc1oc2c(c1C(=O)NCc1ccccc1)CCCC2 | inactive: -28.7%
CCOc1ccc(-n2c(=O)c3sccc3n(CC(=O)NCCc3ccc(OC)c(OC)c3)c2=O)cc1 | inconclusive: -41.9%
CN1/C(=C\C(=O)COC(=O)Cn2nnc(-c3ccccc3)n2)C(C)(C)c2ccccc21 | inconclusive: -44%
COc1ccc(NS(=O)(=O)c2ccc(-c3cnc(C4CC4)o3)cc2)cc1OC | active: -73.6%
O=C(O)c1ccccc1Nc1ccc2nonc2c1[N+](=O)[O-] | inconclusive: -52.5%
CC1=CC(=O)O[C@@H]1[C@@]1(C)C[C@H]2OC(=O)C[C@H]3[C@@H](C)C(=O)C(O)=C1[C@@]23CO | inconclusive: -49.7%
Cn1cc(C(=O)c2ccc(Cl)cc2)cc1-c1nc2ccccc2n1C | active: -69.1%

Compound | activity change, negative = inhibition
Cc1ccc(-c2csc3ncnc(Oc4cccc5ccc(C)nc45)c23)cc1 | inconclusive: -45.7%
O=C(CSC1=NCCS1)NC(NC(=O)CSC1=NCCS1)c1ccccc1 | inconclusive: -43.9%
Cc1c(NC(=O)COC(=O)CSc2ccc(C(N)=O)cc2[N+](=O)[O-])c(=O)n(-c2ccccc2)n1C | inactive: 14.1%
O=C(CCCCn1c(=O)[nH]c2ccsc2c1=O)N1CCN(c2cccc(C(F)(F)F)c2)CC1 | inconclusive: -50.7%
N=c1c2ccccc2nnn1-c1cccc(C(F)(F)F)c1 | active: -60.6%
CC1CCN(S(=O)(=O)c2ccc3c(c2)N(CC(=O)NCCN(C)C)C(=O)CO3)CC1 | inactive: 8.33%
COc1ccc(NC(=O)Cn2cc(S(=O)(=O)N3CCC(C)CC3)c3ccccc3c2=O)cc1Cl | inactive: -8.81%
CCOc1ccc(NC(=S)c2ccncc2)cc1 | inconclusive: -48.9%
Cc1cc(N/N=C/c2ccc(O)cc2)c2cccc(C)c2n1 | inconclusive: -52.6%
O=C1Nc2c(Cl)cc(Cl)cc2C12Nc1ccccc1S2 (centres undefined) | inactive: -22.1%
O=C(CSc1nc2cc(Cl)ccc2o1)c1cccs1 | inactive: -4.09%
C[C@@H]1COc2cc(NCCCN3CCOCC3)ccc2S(=O)(=O)N1 | inactive: 1.71%
Cc1ccc(OCC(=O)NCCNC(=O)c2cccnc2)cc1C | inconclusive: -40.4%
O=C(Nc1nc(-c2ccccc2)cs1)C1CCCCN1S(=O)(=O)c1ccc(Cl)cc1 (centres undefined) | inconclusive: -59.6%
CCOC(=O)N1CCC(NC(=O)c2cc(C(=O)NC3CCN(Cc4ccccc4)CC3)ccc2CO)CC1 | inconclusive: -50.2%
CN(C)S(=O)(=O)c1ccc(N2CCCC2)c(C(=O)N2CCN(S(=O)(=O)c3cccc(F)c3)CC2)c1 | inactive: -9.36%
COc1cccc(-c2ccc3ncc(-c4ccoc4)n3n2)c1 | inconclusive: -49.6%
COc1cccc(CNC(=O)Cn2ccc3cc(S(=O)(=O)N4CCCCCC4)ccc32)c1OC | inconclusive: -40.2%
COc1ccc(CCN(C)C(=O)c2cccc(S(=O)(=O)N3CCN(c4ccc(F)cc4)CC3)c2)cc1OC | inconclusive: -53.9%
Cc1cn(-c2cc(C(=O)Nc3ccc(C)c(NC(=O)C(=O)c4c[nH]c5ccccc45)c3)cc(C(F)(F)F)c2)cn1 | inconclusive: -52%
Cc1ccc(-n2nc3c(=O)n(CC(=O)NCCc4cccs4)nc(C)c3c2C)cc1 | inconclusive: -58.5%

A different layout for three compounds above:

| Compound | activity change, negative = inhibition |
| --- | --- |
| CN(C)S(=O)(=O)c1ccc(N2CCCC2)c(C(=O)N2CCN(S(=O)(=O)c3cccc(F)c3)CC2)c1 | inactive: -9.36% |
| COc1cccc(-c2ccc3ncc(-c4ccoc4)n3n2)c1 | inconclusive: -49.6% |
| COc1cccc(CNC(=O)Cn2ccc3cc(S(=O)(=O)N4CCCCCC4)ccc32)c1OC | inconclusive: -40.2% |

(listing goes on)

Compound | activity change, negative = inhibition
CCc1ccc(/C=N/NC(=O)c2c[nH]c3ccccc23)s1 | inactive: 11.9%
O=c1[nH][nH]c2c1[C@H](CCc1cccc(Cl)c1)O[C@H](CCc1ccccc1)C2 | inactive: 1.72%
CC(=O)N1c2ccc(S(=O)(=O)NCCC(=O)N3CCC(C)CC3)cc2CC1C (centres undefined) | inactive: 14.2%
Cc1ccc(S(=O)(=O)C[C@@H]2OC3CCCCC3N2S(=O)(=O)c2ccc(C)cc2)cc1 (some centres undefined) | inconclusive: -45.7%
O=C(NCc1nc(-c2ccccc2)no1)c1ccco1 | inconclusive: -40.1%
CCOc1ccccc1NC(=O)COc1coc(CN2CCCc3ccccc32)cc1=O | inactive: -5.3%
COc1cc(Cl)c(C)cc1NC(=O)c1nn(C)c2c1CSc1ccccc1-2 | inconclusive: -52.4%
O=C(NCc1ccc(F)cc1)c1nc(-c2cccs2)no1 | inconclusive: -56.7%
c1ccc(Cn2nnc3c(N4CCOCC4)ncnc32)cc1 | inconclusive: -52.2%
O=C(NCc1cccnc1)c1cc(Sc2ccccc2Cl)nc2ccccc12 | inconclusive: -47.1%
CCOC(=O)[C@@H]1[C@H]2COc3ccccc3[C@H]2N2C(=O)N(c3cccc(C)c3)C(=O)[C@]12C | inconclusive: -47.8%
Cc1ccc(C(=O)OCC(=O)NCc2cc(C)c(O)c(C)c2)cc1S(=O)(=O)N1CCCCC1 | inconclusive: -55.2%
O=C(O)CN1C(=O)COc2ccc(S(=O)(=O)N3CCCCCC3)cc21 | active: -60.5%
CC(C)n1c(-c2ccco2)csc1=Nc1cccnc1 | active: -79.5%
CC(NC(=O)c1ccccc1)C(=O)N/N=C/c1ccccc1 (centres undefined) | inconclusive: -40.1%
CC(C)C(NC(=O)c1ccccc1NC(=O)c1ccccc1)C(=O)NNC(=O)c1ccncc1 (centres undefined) | inactive: -25.2%
CC(C#N)Sc1nnc(-c2ccccc2F)n1C1CC1 (centres undefined) | inactive: -24.1%
COc1ccc(CCC(=O)NC2CC(=O)N(c3ccccc3)C2)cc1 (centres undefined) | inactive: -1.56%
O=C(NC1CCCCC1)C(c1ccc2ncccc2c1)N(Cc1ccc2c(c1)OCO2)C(=O)c1cccs1 (centres undefined) | inconclusive: -55.7%
O=C(c1ccc(CS(=O)c2ccccc2Cl)o1)N1CCN(c2ccccn2)CC1 (centres undefined) | inconclusive: -55.9%
Cc1ccc(C(=O)N/C(=C/c2ccc(-c3ccc([N+](=O)[O-])cc3)o2)C(=O)NCCCN(C)C)cc1 | inconclusive: -42.4%

Compound | activity change, negative = inhibition
COCCN(CCOC)c1nc(S(=O)(=O)c2ccc(C)cc2)c(Cl)s1 | inconclusive: -42.5%
O=CC1=C(N2CCOCC2)/C(=C\c2ccccc2)CC1 | inactive: -24.8%
Cc1ccc2c(c1)sc(-c1ccc(N(C)C)cc1)[n+]2C | active: -95.6%
CC1(C)CC2CC(C)(CN2S(=O)(=O)c2ccc(C(=O)Nc3ccc(S(=O)(=O)N4CCOCC4)cc3)cc2)C1 (centres undefined) | active: -90.5%
COC(=O)c1ccc(C(=O)NC2CCSc3ccccc32)cc1 (centres undefined) | inactive: 7.06%
CC(Cc1ccccc1)NC(=O)Cc1ccc(N(C)C)cc1 (centres undefined) | inconclusive: -49%
CC(C)CCNC(=O)c1cc(C(=O)c2cc(Br)ccc2O)cn(CCC(C)C)c1=O | active: -72.7%
COc1ccc(C(=O)NCc2nc(C)c(C)s2)cc1OC1CCN(C(C)C)CC1 | inconclusive: -47.4%
Cc1ccccc1NC(=S)NCc1ccc2c(c1)cc(C)n2C | inactive: -4.3%
O=C1C=CC(=O)N1c1cccc(-c2ccccc2)c1 | inconclusive: -42.9%
CSc1cccc(NC(=S)NN/C(=N/S(=O)(=O)c2ccccc2)N2CCCC2)c1 | inconclusive: -50.4%
Cc1cc(C)nc(SCc2nc3ccccc3n2C)n1 | inactive: 24.2%
CC(C)(C)c1ccc(NC(=O)c2ccsc2)cc1 | inactive: -20.4%
CC1CC(C)CN(C(=O)CCc2nnc3ccc(N4CCCCC4)nn23)C1 (centres undefined) | inconclusive: -46.7%
CCCOc1ccc(NC(=O)CC2C(=O)Nc3ccccc3N2CC(=O)N2CCCC2)cc1 (centres undefined) | active: -60.4%
CC(C)c1ccc(C(C)NC(=O)C2CCCC2)cc1 (centres undefined) | inconclusive: -48%
CCN(C[C@H]1N[C@@](Cc2ccccc2)(C(=O)OC)[C@H]2C(=O)N(Cc3ccccc3)C(=O)[C@@H]12)S(=O)(=O)c1ccc(C)cc1 | inactive: -11.3%
CCC(Sc1nc2ncccc2o1)C(=O)Nc1cccc(C)c1 (centres undefined) | inactive: 7.82%
COC(=O)c1c(NC(=O)C2(C)Cc3ccccc3C(=O)O2)sc2c1CCCC2 (centres undefined) | inconclusive: -55.1%
O=C(Nc1cccc(S(=O)(=O)N2CCCC2)c1)c1ccc(Cl)nc1 | inconclusive: -46.4%
COc1ccc(C(=O)Nc2nc(C)c(C(C)=O)s2)cc1S(=O)(=O)N1CCOCC1 | active: -91.7%
